Results as given in PubChem BioAssay AID540276 (National Center for Advancing Translational Sciences (NCATS), 2011).
Out of some 300,000 compounds screened, about 5,400 (1.8%) were called active. This list was built around the results that the source calls inconclusive (neither active nor inactive); the mix of calls is not that of the screen. The call rests on the fitted dose curve; tested in HEK293 cells. Potencies beside an inconclusive call are fits to weak or partial responses and may not hold up.
On the % scale 0 is the no-effect control and ±100 the full control effect; potency means the concentration at half of the fitted maximal effect.

Assay: qHTS for inhibitors of binding or entry into cells for Marburg Virus
Details: Marburg virus pseudotyped entry inhibition, cell reporter; activity change, negative = inhibition: at 37.8 µM (top of the series) unless noted
In the case of `COc1ccc(NC(=S)Nc2ccc3nc(C)c(C)nc3c2)cc1`, the “activity change, negative = inhibition” value is reported as inactive: -23.4%. With `COc1cccc(OCc2cc(C(=O)NCCN3CCCCC3CO)no2)c1` (centres undefined) the “activity change, negative = inhibition” value was inactive: 30.7%. For `COc1ccc(NC(=O)CN2C(=O)NC3(CCCCCC3)C2=O)cc1Cl`, the Potency was inconclusive: 10 µM [inhibitor, partial curve, poor fit]. In the case of `CCOc1cc(NC(=S)NCCCN2CCOCC2)c(OCC)cc1NC(=O)c1ccco1`, the “activity change, negative = inhibition” value is reported as inactive: 21.4%. For `CC(C(=O)Nc1sc2c(c1C(=O)NCC1CCCO1)CCC2)N1C(=O)c2ccccc2C1=O` (centres undefined), the Potency was inconclusive: 35.5 µM [activator, single point]. With `CC1CC(C)CN(C(=O)COC(=O)CCc2nc3ccccc3c(=O)[nH]2)C1` (centres undefined) the Potency was inconclusive: 0.447 µM [activator, partial curve, poor fit]. For `COc1cccc(/C=N/NC(=O)c2cc(-c3cccn3C)n[nH]2)c1`, the “activity change, negative = inhibition” value was inactive: -7.67%. In the case of `CCOc1ccc(S(=O)(=O)Nc2cccc(C)c2)c2cccnc12`, the Potency is reported as inconclusive: 8.91 µM [inhibitor, partial curve, poor fit]. For `COc1cc(NC(=O)NCCN2CCN(c3ccc(Cl)cc3)CC2)ccc1C`, the Potency was inconclusive: 35.5 µM [inhibitor, single point]. In the case of `CC(=O)N1N=C2c3ccccc3CCC2C1c1ccc(F)cc1` (centres undefined), the Potency is reported as inconclusive: 15.8 µM [inhibitor, single point]. For `COc1ccc(NC(=S)N2CCC(Cc3ccccc3)CC2)cc1OC`, the Potency was inconclusive: 35.5 µM [inhibitor, single point]. In the case of `CC(Oc1ccc(Cl)cc1Cl)C(=O)Nc1ccncc1` (centres undefined), the Potency is reported as inconclusive: 10 µM [inhibitor, partial curve, poor fit]. In the case of `CC(=O)OC1CC[C@@]2(C)C(=CC(=O)C3C4CCC(OC(C)=O)[C@@]4(C)CCC32)C1` (some centres undefined), the Potency is reported as inconclusive: 6.31 µM [inhibitor, single point]. With `CC(=O)Oc1ccc(C(=O)Nc2cccc(-c3nnc(-c4ccco4)o3)c2)cc1` the Potency was active: 11.2 µM. With `COc1ccc(/C(C)=N/Nc2nc3ccccc3nc2C)cc1` the Potency was inconclusive: 7.08 µM [inhibitor, full curve]. For `O=C(Nc1c(O)c2ccccc2oc1=O)c1cccc(F)c1`, the “activity change, negative = inhibition” value was inactive: 12.2% [at 46.1 µM]. For `Cc1cc(NC(=O)COc2ccc(Cl)cc2Cl)n(-c2ccccc2)n1`, the Potency was inconclusive: 8.91 µM [inhibitor, partial curve, poor fit]. For `CC(C)CN(C(=O)COC(=O)/C=C/c1cccs1)c1c(N)n(Cc2ccccc2)c(=O)[nH]c1=O`, the “activity change, negative = inhibition” value was inactive: -15.5%. In the case of `S=c1[nH]nc2nnc3ccccc3n12`, the Potency is reported as inconclusive: 35.5 µM [inhibitor, single point]. For `O=C(CSc1nnc(-c2ccccc2)o1)c1nnc(-c2ccccc2)o1`, the “activity change, negative = inhibition” value was inactive: 0.0163%. With `C=CCOc1ccc(C(=O)Nc2ccc(OCC)cc2)cc1` the “activity change, negative = inhibition” value was inactive: 1.63% [at 46.1 µM]. For `CCc1ccc(-c2cc(C)no2)cc1S(=O)(=O)NCCN1CCC(C)CC1`, the Potency was inconclusive: 11.2 µM [inhibitor, partial curve, poor fit]. For `COc1ccc(OCCNC(=O)c2cccc(Oc3ccc(C(F)(F)F)cc3[N+](=O)[O-])c2)cc1`, the Potency was inconclusive: 11.2 µM [inhibitor, partial curve, poor fit]. In the case of `CCN(CC(=O)Nc1cccc(OC)c1)CC(=O)Nc1cccc2ccccc12`, the Potency is reported as inconclusive: 35.5 µM [inhibitor, single point]. In the case of `CCOC(=O)CC1=NN(c2ccccc2)C(=O)C1=c1sc(=C2SC(C)=C(C)N2CC)c(=O)n1CC`, the “activity change, negative = inhibition” value is reported as inactive: -22.2% [at 46.1 µM]. With `CCOc1ccc(N=c2scc(-c3ccc(OC)cc3)n2CCO)cc1` the “activity change, negative = inhibition” value was inactive: -14.9%. With `N#CCCN(C(=O)COC(=O)c1cccc(S(=O)(=O)N2CCCCCC2)c1)c1ccc(F)cc1` the “activity change, negative = inhibition” value was inactive: 22.1%. For `NC(=O)C(Cc1ccccc1)NC(=O)C12CC3CC(CC(C3)C1)C2` (centres undefined), the Potency was inconclusive: 6.31 µM [inhibitor, single point]. In the case of `COc1ccc(CCNC(=O)Cn2c(=O)cnc3ccccc32)cc1`, the Potency is reported as inconclusive: 20 µM [inhibitor, partial curve, poor fit]. With `COc1ccc(C(=O)Nc2ccc(Cl)c(S(=O)(=O)N3CCOCC3)c2)cc1` the Potency was inconclusive: 8.91 µM [inhibitor, partial curve, poor fit]. For `CCn1c(C(=O)NCc2ccc(OC)cc2)cc2sc(Cl)cc21`, the Potency was inconclusive: 2.51 µM [inhibitor, partial curve, poor fit]. For `Nc1nonc1-c1nc2ccccc2n1CC(=O)N/N=C/c1ccc(-c2cccc(C(=O)O)c2)o1`, the “activity change, negative = inhibition” value was inactive: -2.68% [at 46.1 µM]. With `Cc1cc(C)nc(SCc2ccc(C(=O)N/N=C3\CC(C)CC(C)(C)C3)cc2)n1` (centres undefined) the Potency was inconclusive: 35.5 µM [activator, partial curve, poor fit]. With `COc1ccc(/C=C\c2onc(C)c2S(=O)(=O)N2CCC(C(=O)Nc3cccc(C)c3C)CC2)cc1` the Potency was inconclusive: 5.62 µM [inhibitor, full curve, poor fit]. With `CCC(C)NC(=O)CCc1nnc2ccc(N3CCC(C)CC3)nn12` (centres undefined) the “activity change, negative = inhibition” value was inactive: 28.2% [at 46.1 µM]. With `COc1cc2c(cc1OC)C(C)N(CCc1ccc(Cl)cc1)CC2` (centres undefined) the Potency was inconclusive: 35.5 µM [inhibitor, single point]. In the case of `O=C(Cn1ccsc1=NC(=O)C(F)(F)F)c1ccccc1`, the Potency is reported as inconclusive: 0.112 µM [activator, full curve, poor fit]. In the case of `Cc1nn(-c2ccccc2)c(C)c1CCC(=O)O`, the Potency is reported as inconclusive: 23.1 µM [activator, single point]. With `COc1ccc(C(C)NC(=O)c2ccc(Cl)cc2)cc1OC` (centres undefined) the Potency was inconclusive: 0.112 µM [inhibitor, full curve, poor fit]. For `O=C(NCc1ccc2c(c1)OCO2)c1ccncc1`, the “activity change, negative = inhibition” value was inactive: 28.6%. With `COc1ccc(-n2nc(C(=O)NCC(=O)N3CCN(c4ccccc4)CC3)c3ccccc3c2=O)cc1OC` the “activity change, negative = inhibition” value was inactive: -12.4% [at 46.1 µM]. For `CCn1cc(CN2N=C(C)CC2c2ccccc2)c(C)n1` (centres undefined), the Potency was inconclusive: 17.8 µM [activator, single point]. With `COc1ccc2c(c1)CCc1c(C(=O)Nc3c(C)nn(Cc4ccc(Cl)cc4)c3C)noc1-2` the “activity change, negative = inhibition” value was inactive: -3.59% [at 46.1 µM]. For `O=C(Nc1cccc(NC(=O)c2cccs2)c1)c1ccc(F)cc1`, the Potency was inconclusive: 2.82 µM [inhibitor, partial curve, poor fit].
